PubChem BioAssay AID652243, Drosophila RNAi Screening Center, 2013
The deposit covers about 24,000 reagents; shown is a random part of those that have a named target and a result. Over the whole deposit, 246 (1%) got an active call. 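Plates not normalised; calls are printed but the firefly/Renilla ratio behind them is not deposited; fold cut for lowering reported inconsistently.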 Raw values vary from plate to plate and are shown uncorrected. No sequences are given here. Not given: the amount of reagent.

- Screen: 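Fly genes required for human androgen receptor driven transcription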 (primary screen)
- Cell system: Drosophila S2R+ cells
- Reagents: long dsRNA against Drosophila genes
- Timing: 72 h (48 h, then 24 h hormone)
- Challenge: synthetic androgen R1881 at 10 nM for 24 h
- Measurement: 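Firefly light from an androgen-responsive reporter and Renilla control light per well, raw and unnormalised, for each of two replicates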
- Reading the numbers: firefly reporter light: higher = more light from androgen-responsive reporter; Renilla control light: higher = more constitutive control signal (cell number, transfection)
- Hit rule: 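Hit when the log firefly-to-Renilla ratio dropped or increased by a fixed fold versus the mean of GFP or LacZ controls across duplicate plates; lowering cut given as 1.5 and as 3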
- Calls: active = hit: reporter lowered or raised; inactive = no hit

For SMC3 (GeneID 32627) [DRSC20227], the values are firefly reporter light, replicate 1 = 2.87e5; firefly reporter light, replicate 2 = 2.42e5; Renilla control light, replicate 1 = 3.23e6; Renilla control light, replicate 2 = 2.47e6; inactive.
Against Pfrx (GeneID 32938) [DRSC18856] the deposit lists firefly reporter light, replicate 1 = 1.62e5; firefly reporter light, replicate 2 = 2.08e5; Renilla control light, replicate 1 = 7.01e5; Renilla control light, replicate 2 = 6.26e5; inactive.
After knock-down of Pfrx (GeneID 32938) [DRSC19315], the record shows firefly reporter light, replicate 1 = 6.73e5; firefly reporter light, replicate 2 = 6.71e5; Renilla control light, replicate 1 = 1.09e6; Renilla control light, replicate 2 = 8.08e5; active.
Pfrx (GeneID 32938) [DRSC28602] gave firefly reporter light, replicate 1 = 3.54e5; firefly reporter light, replicate 2 = 3.43e5; Renilla control light, replicate 1 = 1.41e6; Renilla control light, replicate 2 = 1.02e6; inactive.
CG15865 (GeneID 32641) [DRSC19733] gave firefly reporter light, replicate 1 = 8.16e5; firefly reporter light, replicate 2 = 4.40e5; Renilla control light, replicate 1 = 3.87e6; Renilla control light, replicate 2 = 3.21e6; inactive.
Against CG12782 (GeneID 37685) [DRSC04127], the values are firefly reporter light, replicate 1 = 1.99e5; firefly reporter light, replicate 2 = 2.95e5; Renilla control light, replicate 1 = 1.51e6; Renilla control light, replicate 2 = 9.47e5; inactive.
Silencing of Zip42C.1 (GeneID 35579) [DRSC05003] gave: firefly reporter light, replicate 1 = 4.14e5; firefly reporter light, replicate 2 = 2.37e5; Renilla control light, replicate 1 = 1.76e6; Renilla control light, replicate 2 = 1.11e6; inactive.
Silencing of slv (GeneID 35773) [DRSC07685] came out at: firefly reporter light, replicate 1 = 4.64e5; firefly reporter light, replicate 2 = 3.80e5; Renilla control light, replicate 1 = 2.64e6; Renilla control light, replicate 2 = 2.13e6; inactive.
With knock-down of l(3)73Ah (GeneID 48903) [DRSC11359] the results were firefly reporter light, replicate 1 = 2.36e5; firefly reporter light, replicate 2 = 1.78e5; Renilla control light, replicate 1 = 1.48e6; Renilla control light, replicate 2 = 1.25e6; inactive.
For LanA (GeneID 38723) [DRSC11207], the entry reads firefly reporter light, replicate 1 = 1.20e6; firefly reporter light, replicate 2 = 8.37e5; Renilla control light, replicate 1 = 1.47e6; Renilla control light, replicate 2 = 1.30e6; inactive.

Hits (from the list above):
Pfrx (GeneID 32938) [DRSC19315] | firefly reporter light, replicate 1: 6.73e5; firefly reporter light, replicate 2: 6.71e5; Renilla control light, replicate 1: 1.09e6; Renilla control light, replicate 2: 8.08e5; outcome: active

Next reagents follow:
CG31431 (GeneID 326138) [DRSC14589] gave firefly reporter light, replicate 1 = 2.92e5; firefly reporter light, replicate 2 = 3.17e5; Renilla control light, replicate 1 = 2.01e6; Renilla control light, replicate 2 = 3.25e6; inactive.
With knock-down of CG31431 (GeneID 326138) [DRSC39317] the results were inactive.
For Hus1-like (GeneID 40598) [DRSC12353] the deposit lists firefly reporter light, replicate 1 = 53625; firefly reporter light, replicate 2 = 92924; Renilla control light, replicate 1 = 1.79e6; Renilla control light, replicate 2 = 1.31e6; inactive.
With knock-down of CG9459 (GeneID 41213) [DRSC16496], the record shows firefly reporter light, replicate 1 = 1.28e5; firefly reporter light, replicate 2 = 1.37e5; Renilla control light, replicate 1 = 2.10e6; Renilla control light, replicate 2 = 2.23e6; inactive.
After knock-down of Gale (GeneID 38076) [DRSC08234], the screen gave firefly reporter light, replicate 1 = 9.99e5; firefly reporter light, replicate 2 = 9.83e5; Renilla control light, replicate 1 = 1.15e6; Renilla control light, replicate 2 = 1.52e6; inactive.
With knock-down of ppk9 (GeneID 37498) [DRSC04134] the results were firefly reporter light, replicate 1 = 3.29e5; firefly reporter light, replicate 2 = 3.28e5; Renilla control light, replicate 1 = 1.88e6; Renilla control light, replicate 2 = 1.78e6; inactive.
ppk9 (GeneID 37498) [DRSC04135] scored firefly reporter light, replicate 1 = 2.69e5; firefly reporter light, replicate 2 = 3.13e5; Renilla control light, replicate 1 = 1.68e6; Renilla control light, replicate 2 = 1.91e6; inactive.
With knock-down of CG13577 (GeneID 37885) [DRSC04213], the screen gave firefly reporter light, replicate 1 = 2.86e5; firefly reporter light, replicate 2 = 3.85e5; Renilla control light, replicate 1 = 1.32e6; Renilla control light, replicate 2 = 1.30e6; inactive.
Knock-down of snRNA:U11 (GeneID 4379906) [DRSC36526] came out at: firefly reporter light, replicate 1 = 6.86e5; firefly reporter light, replicate 2 = 5.41e5; Renilla control light, replicate 1 = 1.48e6; Renilla control light, replicate 2 = 1.28e6; inactive.
Against Coop (GeneID 35677) [DRSC06604], the values are firefly reporter light, replicate 1 = 8.27e5; firefly reporter light, replicate 2 = 6.37e5; Renilla control light, replicate 1 = 2.00e6; Renilla control light, replicate 2 = 1.57e6; inactive.
Coop (GeneID 35677) [DRSC25252] scored firefly reporter light, replicate 1 = 6.79e5; firefly reporter light, replicate 2 = 4.72e5; Renilla control light, replicate 1 = 4.66e5; Renilla control light, replicate 2 = 4.37e5; inactive.
